Assay results: US20100303884A1
Results are given in words; binding and its absence hold for the method and conditions named. Some binding calls cover weakened binding; strength is not graded here.

By UniProt entry, the sequences of proteins in these tests, tags left out. Where a name states a change or a piece, a line headed by the entry shows the natural chain unless it says otherwise.
UniProt P17936: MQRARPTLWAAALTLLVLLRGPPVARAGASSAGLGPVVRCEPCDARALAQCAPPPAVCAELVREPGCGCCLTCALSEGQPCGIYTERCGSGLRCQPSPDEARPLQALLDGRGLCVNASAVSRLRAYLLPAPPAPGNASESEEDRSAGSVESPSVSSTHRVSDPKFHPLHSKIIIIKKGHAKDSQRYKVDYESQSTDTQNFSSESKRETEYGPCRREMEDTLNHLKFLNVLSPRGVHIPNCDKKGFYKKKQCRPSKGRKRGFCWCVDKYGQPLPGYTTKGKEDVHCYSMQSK
UniProt P04004: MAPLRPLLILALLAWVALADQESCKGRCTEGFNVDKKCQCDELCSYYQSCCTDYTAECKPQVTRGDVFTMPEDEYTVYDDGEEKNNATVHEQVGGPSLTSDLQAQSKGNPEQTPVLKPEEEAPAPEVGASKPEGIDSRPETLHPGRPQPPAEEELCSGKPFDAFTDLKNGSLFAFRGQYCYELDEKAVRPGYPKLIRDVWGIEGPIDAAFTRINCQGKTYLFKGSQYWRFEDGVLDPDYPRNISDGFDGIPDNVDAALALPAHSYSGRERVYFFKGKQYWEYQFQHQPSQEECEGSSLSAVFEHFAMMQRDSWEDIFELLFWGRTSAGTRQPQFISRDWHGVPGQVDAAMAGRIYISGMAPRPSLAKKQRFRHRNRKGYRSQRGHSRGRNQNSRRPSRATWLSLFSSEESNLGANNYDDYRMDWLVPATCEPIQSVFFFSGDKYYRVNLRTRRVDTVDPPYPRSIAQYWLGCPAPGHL

Target: [125I]-IGF-I/IGFBP-3 complex (UniProt P17936)
Experiment: solid plate binding assay, VN coated on wells, [125I]-IGF-I/IGFBP-3 added, gamma counter

## Human VN: VN purified from human serum (from UniProt P04004 20-478)
  binding: binds
